Test results: PubChem BioAssay AID445 (National Center for Advancing Translational Sciences (NCATS), 2006)
Some of the results follow. Further columns of the screen follow, without active or inactive calls. The list favours compounds with an active or inconclusive main result. Words in brackets tell the shape of the fitted curve; partial curves, single points and poor fits give uncertain potencies.

Experiment: IkB Signaling
Details: ABC-DLBCL IkBa-CBG/CBR dual luciferase ratio (green luciferase fused to IkBa over red control in OCI-Ly3 lymphoma cells), 4 h; measured here: control luc red channel unless noted
How it was run: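 In this assay, an IκBα–CBG68 fusion accumulates when IKK-driven degradation is blocked; native CBR normalizes for cell number. OCI-Ly3 cells were treated 4 h with compound and doxycycline, then green and red light read after Chroma-Glo addition.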
With `COC(=O)c1cc(NS(=O)(=O)c2ccc3c(c2)CCC(=O)N3)cc(C(=O)OC)c1` the AC50 was 12.6 µM [falling, partial curve]. In the case of `Cc1ccc(Cl)cc1NS(=O)(=O)c1ccc2c(c1)NC(=O)CCS2`, the AC50 is reported as 20 µM [falling, single point]. For `COc1ccccc1OCCCSc1nc(-c2ccc(C(C)(C)C)cc2)nc2cc(=O)[nH]n12`, the AC50 was 39.8 µM [falling, single point]. With `COc1ccccc1CNC(=O)C1CCCN(C(=O)c2cnn(-c3ccc(F)cc3)c2-n2cccc2)C1` (stereo unspecified) the AC50 was 15.8 µM [falling, partial curve, poor fit]. With `CCCn1c(CN2CCCCC2CC)nc2c1c(=O)n(C)c(=O)n2C` (stereo unspecified) the AC50 was 31.6 µM [rising, partial curve] [measured here: IkB-luc green channel]. In the case of `Cc1ccc(NC(=O)C(Cc2ccccc2)n2cccc2)cc1` (stereo unspecified), the AC50 is reported as 31.6 µM [falling, single point]. For `O=C(NC1CCCCC1)N1CCc2[nH]c3ccccc3c2C1`, the AC50 was 10 µM [falling, partial curve]. In the case of `COc1ccc(CNC(=O)Cn2ncc3c4ccccc4n(Cc4cccc(Cl)c4)c3c2=O)cc1`, the AC50 is reported as 10 µM [falling, partial curve]. For `OCCN1CCN(CCCN2c3ccccc3Sc3ccc(C(F)(F)F)cc32)CC1`, the AC50 was 5.01 µM [falling, partial curve, poor fit] [measured here: IkB-luc green channel]. In the case of `CN1CCc2c(sc3c2C(=O)NC(c2ccc(OC(=O)c4ccccc4)cc2)N3)C1` (stereo unspecified), the AC50 is reported as 0.0794 µM [rising, full curve, poor fit]. For `COc1ccc(OC)c(NCc2cccn2-c2nnc(N3CCCCC3)s2)c1`, the AC50 was 15.8 µM [falling, partial curve]. In the case of `COc1ccc(C)cc1NC(=O)c1ccc2c(=O)n3c(nc2c1)CCCCC3`, the AC50 is reported as 31.6 µM [falling, single point]. For `COc1ccc(-c2nnc(SCC(=O)Nc3ccccc3OC)o2)cc1`, the AC50 was 2.51 µM [falling, partial curve]. With `Cc1cccc(-c2nc3c4ccccc4nc(N4CCN(c5ccccc5F)CC4)n3n2)c1` the AC50 was 7.94 µM [rising, partial curve]. With `CCn1cc(C(=O)OCC(=O)OC2CC(C)CCC2C(C)C)c(=O)c2ccc(C)nc21` (stereo unspecified) the AC50 was 31.6 µM [falling, single point]. For `Cc1ccc(CNC(=O)NCc2noc3ccc(C)cc23)cc1`, the AC50 was 25.1 µM [falling, single point]. With `Cn1c(=O)c2c(-c3ccc(Cl)cc3)n(Cc3ccc(Cl)cc3)cc2n(C)c1=O` the AC50 was 10 µM [falling, partial curve]. In the case of `CCOc1ccc(C(c2c(O)cc(C)n(CCOC)c2=O)N2CCN(c3ccccc3)CC2)cc1` (stereo unspecified), the AC50 is reported as 39.8 µM [falling, single point]. For `O=C(CSc1nnc(COc2cccc3ccccc23)o1)N1CCN(C(=O)c2ccco2)CC1`, the AC50 was 31.6 µM [falling, partial curve]. In the case of `COc1ccc(-c2noc(N3CCC(C(=O)Nc4ccc(F)cc4Cl)CC3)n2)cc1`, the AC50 is reported as 15.8 µM [falling, partial curve]. In the case of `CCN(C(=O)CCS(=O)(=O)c1cc2[nH]c(=O)c(=O)[nH]c2cc1C)c1ccccc1`, the AC50 is reported as 39.8 µM [falling, single point]. With `Cc1cc2oc(=O)cc(CN3CCN(C/C=C/c4ccccc4)CC3)c2cc1O` the AC50 was 15.8 µM [falling, partial curve]. For `Cc1ccc2sc(N3CCN(C(=O)CCS(=O)(=O)c4ccc(Cl)cc4)CC3)nc2c1C`, the AC50 was 31.6 µM [rising, single point]. For `O=C(NCCc1ccc(F)cc1)C(=O)NCC(c1cccs1)S(=O)(=O)c1ccc(F)cc1` (stereo unspecified), the AC50 was 25.1 µM [falling, single point]. For `O=C(Cn1c(=O)c2c(ncn2C2CCCC2)n(Cc2ccccc2)c1=O)N1CCc2ccccc21`, the AC50 was 5.01 µM [falling, partial curve]. In the case of `COC(=O)c1c(NC(=O)CCCOc2ccc(C(C)(C)C)cc2)sc2c1C(C(=O)OC)CC2` (stereo unspecified), the AC50 is reported as 12.6 µM [falling, partial curve]. In the case of `CCn1c(SCC#N)nc2c(c1=O)C1(CCCC1)Cc1ccccc1-2`, the AC50 is reported as 39.8 µM [falling, single point]. With `CCCC(=O)N(CCc1ccccc1)Cc1nc2ccccc2c(=O)[nH]1` the AC50 was 25.1 µM [falling, partial curve]. For `COc1ccc(N2CCN(C(=O)CCn3c(=O)[nH]c4cc(OC)c(OC)cc4c3=O)CC2)cc1`, the AC50 was 10 µM [falling, partial curve]. With `CCc1ccc(CNC(=O)C(C)n2ccc3cc(S(=O)(=O)N4CCCCCC4)ccc32)cc1` (stereo unspecified) the AC50 was 2 µM [falling, partial curve]. With `Cc1cccc(NC(=O)CCS(=O)(=O)c2cccc3nsnc23)c1C` the AC50 was 12.6 µM [falling, partial curve]. With `COc1cccc(C(=O)NCCc2csc(-c3ccc(Cl)cc3)n2)c1` the AC50 was 31.6 µM [falling, partial curve]. For `COc1ccccc1N1CCN(c2ncnc3onc(-c4ccc(F)cc4)c23)CC1`, the AC50 was 2.51 µM [rising, partial curve]. For `COc1ccc(C)cc1NC(=O)CSc1nnc(-c2ccccn2)n1Cc1ccco1`, the AC50 was 398 nM [rising, full curve, poor fit] [measured here: IkB-luc green channel]. For `O=C(NCc1cccc(F)c1)C1CCCN(C(=O)N2CCOc3ccccc32)C1` (stereo unspecified), the AC50 was 12.6 µM [falling, partial curve]. In the case of `Cc1ccc(C)c(NC(=O)C2CCCN(c3nc4ccccc4s3)C2)c1` (stereo unspecified), the AC50 is reported as 15.8 µM [falling, partial curve]. In the case of `CC1CN(C(=O)N2CCC(C(=O)NCc3cccs3)CC2)c2cc(Cl)ccc2O1` (stereo unspecified), the AC50 is reported as 15.8 µM [falling, partial curve]. With `O=C(c1ccc(Br)o1)N1CCN(c2ccc3nnc(-c4ccccc4)n3n2)CC1` the AC50 was 20 µM [falling, single point]. With `COc1ccc(OC)c(CNC(=O)c2ccc(C)c(NC(=O)c3nsc4ccccc34)c2)c1` the AC50 was 0.2 µM [falling, full curve]. In the case of `CCCCNC(=O)C1CCN(S(=O)(=O)CCC)CC1`, the AC50 is reported as 0.00794 µM [falling, full curve]. With `Cc1sc2nc(C(C)C)nc(SCC(=O)N3CCN(C(=O)c4ccco4)CC3)c2c1C` the AC50 was 31.6 µM [falling, single point]. For `Cn1c(SCC(=O)c2ccccc2)nnc1-c1cnccn1`, the AC50 was 20 µM [falling, partial curve]. For `CCc1nn2c(=O)cc(COC(=O)c3cccc(NC(=O)c4cccs4)c3)nc2s1`, the AC50 was 0.794 µM [falling, full curve]. With `COCCNC(=O)Nc1cc(C(=O)NCc2ccc(C(C)C)cc2)ccc1N1CCCC1` the AC50 was 39.8 µM [falling, single point]. With `COc1cc(C2NC(=O)c3c(sc4c3CCN(C)C4)N2)cc(Br)c1OC(=O)c1ccc(C)cc1` (stereo unspecified) the AC50 was 25.1 µM [falling, single point]. With `CCOc1ccc(C2C(C(=O)OC)=C(C)NC3=C2C(=O)c2ccccc23)cc1OC` (stereo unspecified) the AC50 was 10 µM [falling, partial curve]. For `O=C(NCC(c1ccc2c(c1)OCO2)N1CCN(c2ccc(F)cc2)CC1)c1cccc([N+](=O)[O-])c1` (stereo unspecified), the AC50 was 31.6 µM [falling, single point]. For `Cc1ccc2onc(CNC(=O)Nc3ccccc3C#N)c2c1`, the AC50 was 12.6 µM [falling, single point]. With `O=C(c1noc2c1CCc1ccccc1-2)N1CCc2ccccc2C1` the AC50 was 20 µM [falling, single point]. With `COc1ccc(Nc2ncnc3c2c(-c2ccccc2)cn3-c2ccc(C)c(Cl)c2)cc1OC` the AC50 was 12.6 µM [falling, single point]. With `O=C(CSc1nnc(Cc2cccs2)n1Cc1ccco1)Nc1ccc(Cl)cc1Cl` the AC50 was 15.8 µM [falling, partial curve]. For `Cc1nn(C)c2c1c(C(F)(F)F)cc(=O)n2C(C)C(=O)NCCc1ccc(Cl)cc1` (stereo unspecified), the AC50 was 25.1 µM [falling, partial curve]. For `COc1ccc(NC(=O)c2ccccc2NC(=O)c2ccco2)c(OC)c1`, the AC50 was 7.94 µM [falling, partial curve]. With `COCCOC(=O)c1c(C)oc2c1cc(NS(=O)(=O)c1ccc(Cl)c(C)c1)c1ccccc12` the AC50 was 12.6 µM [falling, partial curve]. With `N#Cc1ccc(C(=O)Nc2ccccc2-c2nc3ccccc3s2)c(F)c1` the AC50 was 3.98 µM [rising, full curve]. In the case of `COc1ccc(OCc2ccc(-c3nc(C#N)c(NCc4ccccc4)o3)o2)cc1`, the AC50 is reported as 31.6 µM [falling, single point]. For `COc1ccc(-c2nc(SCC(=O)Nc3ccc4c(c3)OCO4)c(-c3ccccc3)[nH]2)cc1`, the AC50 was 0.158 µM [falling, full curve]. With `O=C(CN1CCN(c2ncccn2)CC1)N1CCN(C(c2ccccc2)c2ccccc2)CC1` the AC50 was 25.1 µM [falling, single point]. For `COc1ccccc1NC(=O)C1=C(C)Nc2nc(-c3ccco3)nn2C1c1ccccc1` (stereo unspecified), the AC50 was 15.8 µM [falling, partial curve]. For `Cc1ccccc1NC(=O)c1c(NC(=O)c2ccncc2)sc2c1CCC(C(C)(C)C)C2` (stereo unspecified), the AC50 was 12.6 µM [falling, partial curve]. In the case of `CNS(=O)(=O)c1cc(-c2nn3c(C)nnc3c3ccccc23)ccc1C`, the AC50 is reported as 2.51 µM [falling, full curve].
